Test results: the supplement of paper PMC12764529
± gives the half width of the 95% confidence interval. For many entries, trypsin and chymotrypsin gave values far apart.

Key:
[1] = folding stability dG unfold from trypsin proteolysis; higher = more stable
Outline: (§1)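 Digests were run with trypsin and chymotrypsin at 11 concentrations in threefold dilutions, plus a no-protease condition, on designed mini-proteins in a PA-tagged cDNA display construct. The mini-proteins were under 80 residues, had no cysteine, and were kept only when AlphaFold2 dimer inter-PAE was above 15. After sequencing, Bayesian fitting of the counts gave K50, from which unfolding free energy was derived against a sequence-predicted unfolded-state K50 and a shared folded-state K50, per protease or combined.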

[2] = folding stability dG unfold from chymotrypsin proteolysis; higher = more stable
Outline: as §1

[3] = folding stability dG unfold (combined trypsin and chymotrypsin); higher = more stable
Outline: as §1

## SAGGDYVTVSIWIPPENISPEEIKALLQELFPNAEVEYERGPDGLYRISITVPIPPMPPPPPPKDGKSAGGS [r16_535_TrROS]
[1]
  folding stability dG unfold: 1.39 ± 0.074 kcal/mol
[2]
  folding stability dG unfold: 3.75 ± 0.11 kcal/mol
[3]
  folding stability dG unfold: 3.33 ± 0.3 kcal/mol

## SAGGMVIETETDPETGVTYIKVKFPETGEEATLTYDPETNVWTVTGKSEKFKEFLKKLGVKNPKLIISSAGG [r13_511_JUSTAS]
[1]
  folding stability dG unfold: 1.67 ± 0.098 kcal/mol
[2]
  folding stability dG unfold: 4.42 ± 0.12 kcal/mol
[3]
  folding stability dG unfold: 3.86 ± 0.17 kcal/mol

## SAGGMEKAKKTVTLTFRIPKELAEELKKGVPLGTKTIAEKLGLPSDVEVKFVEEDDDVVLVEVTLPVSAGGS [r16_679_TrMRF]
[1]
  folding stability dG unfold: 1.26 ± 0.026 kcal/mol
[2]
  folding stability dG unfold: 3.491 ± 0.029 kcal/mol
[3]
  folding stability dG unfold: 2.99 ± 0.12 kcal/mol

## SAGGFEFEMTQEYWIPWGWRLEVKWRYYFSPDGNINMYPEIEIEPIPIPPPPEPVPVDPNDPDNPDAKSAGG [r19_12_TrROS]
[1]
  folding stability dG unfold: 1.69 ± 0.077 kcal/mol
[2]
  folding stability dG unfold: 4.52 ± 0.08 kcal/mol
[3]
  folding stability dG unfold: 3.71 ± 0.22 kcal/mol

## SAGGSAGGKTITVKLEDGTVLKITVEKDEDGKLTVKVEVYKLDKNGKPLSEEEVKNLVKELLEKSAGGSAGG [r6_234_TrROS_Hall]
[1]
  folding stability dG unfold: 1.96 ± 0.091 kcal/mol
[2]
  folding stability dG unfold: 4 ± 0.061 kcal/mol
[3]
  folding stability dG unfold: 3.42 ± 0.18 kcal/mol

## SAGGSIYIINPDNGWFVEIDVQPDPDGKYTVKIEIYFMEPEPDPDGNPKWKMQPTEMEITIPPGDPITSAGG [r13_561_TrROS]
[1]
  folding stability dG unfold: 0.858 ± 0.11 kcal/mol
[2]
  folding stability dG unfold: 3.09 ± 0.064 kcal/mol
[3]
  folding stability dG unfold: 2.4 ± 0.17 kcal/mol

## SEVVRLPDDSVVFLRRFGNVTLALTLRREGDRLYLFLSVSHFDPDNPSVHTTSRRLFELPPPVPPPPELLSA [r9_83_TrMRF]
[1]
  folding stability dG unfold: 2.55 ± 0.14 kcal/mol
[2]
  folding stability dG unfold: 4.99 ± 0.14 kcal/mol
[3]
  folding stability dG unfold: 4.1 ± 0.55 kcal/mol

## SAGMEELELELEVTYLFPAGNPPDLQAIADRLRALGLEVEDIRAERPPGDSYRVTARVRLRLPPELARSSAG [r5_167_TrMRF]
[1]
  folding stability dG unfold: 0.00927 ± 0.22 kcal/mol
[2]
  folding stability dG unfold: 4.176 ± 0.033 kcal/mol
[3]
  folding stability dG unfold: 3.64 ± 0.093 kcal/mol
